# In the supplement of paper PMC7666118:
# The chains behind the UniProt entries cited, without tags or fusion partners. Where a name states a change or a piece, a line headed by the entry shows the natural chain unless it says otherwise.
# UniProt P50213: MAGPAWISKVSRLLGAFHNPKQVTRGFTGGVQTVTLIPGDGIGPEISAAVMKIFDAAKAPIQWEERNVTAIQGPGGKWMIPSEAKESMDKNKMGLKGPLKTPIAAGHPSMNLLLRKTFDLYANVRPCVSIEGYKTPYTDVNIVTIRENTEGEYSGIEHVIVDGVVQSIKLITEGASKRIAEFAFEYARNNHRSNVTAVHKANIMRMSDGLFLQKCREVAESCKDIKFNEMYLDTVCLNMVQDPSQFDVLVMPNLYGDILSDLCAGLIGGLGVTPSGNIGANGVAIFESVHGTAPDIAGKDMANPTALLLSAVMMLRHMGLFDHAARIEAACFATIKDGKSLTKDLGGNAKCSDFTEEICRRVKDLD
# UniProt Q9H1K1: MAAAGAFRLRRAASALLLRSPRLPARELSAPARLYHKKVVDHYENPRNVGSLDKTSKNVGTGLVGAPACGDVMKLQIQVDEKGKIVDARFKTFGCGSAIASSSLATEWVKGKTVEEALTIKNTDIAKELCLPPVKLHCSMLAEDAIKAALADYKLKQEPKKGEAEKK
# UniProt Q96CN7: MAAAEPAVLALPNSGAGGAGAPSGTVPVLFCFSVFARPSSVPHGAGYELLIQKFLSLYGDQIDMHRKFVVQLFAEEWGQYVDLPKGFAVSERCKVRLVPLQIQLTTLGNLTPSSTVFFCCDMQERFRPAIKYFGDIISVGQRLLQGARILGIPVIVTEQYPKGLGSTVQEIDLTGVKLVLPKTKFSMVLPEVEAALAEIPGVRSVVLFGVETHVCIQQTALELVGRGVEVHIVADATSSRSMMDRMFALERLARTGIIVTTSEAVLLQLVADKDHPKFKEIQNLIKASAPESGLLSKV
# UniProt Q96A47: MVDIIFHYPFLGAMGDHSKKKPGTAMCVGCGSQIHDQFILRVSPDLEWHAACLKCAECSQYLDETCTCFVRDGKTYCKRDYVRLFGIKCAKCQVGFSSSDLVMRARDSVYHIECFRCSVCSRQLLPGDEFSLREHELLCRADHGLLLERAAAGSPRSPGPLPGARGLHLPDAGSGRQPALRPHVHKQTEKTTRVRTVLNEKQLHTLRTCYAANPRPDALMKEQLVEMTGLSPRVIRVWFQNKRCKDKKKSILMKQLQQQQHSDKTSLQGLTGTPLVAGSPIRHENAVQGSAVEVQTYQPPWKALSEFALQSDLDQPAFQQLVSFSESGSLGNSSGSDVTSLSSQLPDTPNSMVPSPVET
# UniProt Q9NS87: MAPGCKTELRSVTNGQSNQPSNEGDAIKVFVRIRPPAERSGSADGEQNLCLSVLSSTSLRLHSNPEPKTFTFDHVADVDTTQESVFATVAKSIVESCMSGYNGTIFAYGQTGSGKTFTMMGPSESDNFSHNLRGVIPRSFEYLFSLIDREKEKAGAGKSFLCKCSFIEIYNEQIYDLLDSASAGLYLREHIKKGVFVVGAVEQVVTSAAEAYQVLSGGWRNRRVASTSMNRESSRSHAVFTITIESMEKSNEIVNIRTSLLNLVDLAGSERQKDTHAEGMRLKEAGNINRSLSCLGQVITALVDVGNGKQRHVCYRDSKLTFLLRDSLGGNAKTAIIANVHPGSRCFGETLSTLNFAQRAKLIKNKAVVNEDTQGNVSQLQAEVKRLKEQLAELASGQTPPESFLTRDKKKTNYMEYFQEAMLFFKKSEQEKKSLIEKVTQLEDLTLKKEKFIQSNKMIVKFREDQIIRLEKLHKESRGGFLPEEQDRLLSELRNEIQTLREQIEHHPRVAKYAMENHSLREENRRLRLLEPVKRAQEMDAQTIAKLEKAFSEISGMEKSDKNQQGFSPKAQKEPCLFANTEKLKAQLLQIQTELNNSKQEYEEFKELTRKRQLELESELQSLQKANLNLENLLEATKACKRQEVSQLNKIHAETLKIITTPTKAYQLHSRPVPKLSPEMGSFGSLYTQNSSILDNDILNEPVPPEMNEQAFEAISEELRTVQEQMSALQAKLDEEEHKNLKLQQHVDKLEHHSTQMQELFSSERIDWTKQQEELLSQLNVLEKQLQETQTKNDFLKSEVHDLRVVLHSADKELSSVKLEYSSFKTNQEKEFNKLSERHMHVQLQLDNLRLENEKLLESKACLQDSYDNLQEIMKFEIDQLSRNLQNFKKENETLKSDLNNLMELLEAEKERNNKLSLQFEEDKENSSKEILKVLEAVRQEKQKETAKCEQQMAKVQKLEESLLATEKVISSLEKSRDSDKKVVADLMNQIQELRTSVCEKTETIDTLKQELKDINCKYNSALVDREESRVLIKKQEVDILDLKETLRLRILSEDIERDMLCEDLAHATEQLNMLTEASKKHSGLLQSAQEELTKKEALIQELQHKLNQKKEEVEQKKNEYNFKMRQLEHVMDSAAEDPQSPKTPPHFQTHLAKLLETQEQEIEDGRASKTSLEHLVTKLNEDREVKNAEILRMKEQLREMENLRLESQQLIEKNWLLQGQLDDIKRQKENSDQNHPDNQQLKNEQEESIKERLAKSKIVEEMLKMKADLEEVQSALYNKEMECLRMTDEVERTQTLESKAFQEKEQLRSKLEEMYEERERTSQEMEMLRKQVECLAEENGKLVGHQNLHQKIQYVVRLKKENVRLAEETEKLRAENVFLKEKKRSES
# UniProt Q9Y2U8: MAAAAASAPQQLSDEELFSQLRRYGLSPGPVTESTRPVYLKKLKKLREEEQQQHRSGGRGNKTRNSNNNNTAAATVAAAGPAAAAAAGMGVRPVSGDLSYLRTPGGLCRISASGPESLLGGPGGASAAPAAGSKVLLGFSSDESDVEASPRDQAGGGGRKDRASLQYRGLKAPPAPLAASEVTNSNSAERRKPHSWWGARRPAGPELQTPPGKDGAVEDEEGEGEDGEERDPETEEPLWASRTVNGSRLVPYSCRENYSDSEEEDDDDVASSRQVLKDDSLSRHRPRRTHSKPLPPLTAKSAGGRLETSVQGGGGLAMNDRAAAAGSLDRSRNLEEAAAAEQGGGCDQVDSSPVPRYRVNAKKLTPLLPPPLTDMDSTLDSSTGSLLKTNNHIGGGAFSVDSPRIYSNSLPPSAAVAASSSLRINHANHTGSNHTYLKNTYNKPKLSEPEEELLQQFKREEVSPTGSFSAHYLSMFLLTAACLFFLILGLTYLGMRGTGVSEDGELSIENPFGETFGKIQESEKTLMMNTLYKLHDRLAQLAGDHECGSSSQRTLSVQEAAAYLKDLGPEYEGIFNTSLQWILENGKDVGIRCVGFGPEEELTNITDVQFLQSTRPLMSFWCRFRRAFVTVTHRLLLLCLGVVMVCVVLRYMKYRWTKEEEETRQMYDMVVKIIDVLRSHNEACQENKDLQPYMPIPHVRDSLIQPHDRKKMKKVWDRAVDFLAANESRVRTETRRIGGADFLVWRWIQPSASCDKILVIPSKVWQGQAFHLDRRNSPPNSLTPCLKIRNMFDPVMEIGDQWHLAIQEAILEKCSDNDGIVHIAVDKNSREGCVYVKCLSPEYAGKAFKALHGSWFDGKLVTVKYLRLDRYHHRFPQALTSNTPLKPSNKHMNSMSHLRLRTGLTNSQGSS
# UniProt P41134: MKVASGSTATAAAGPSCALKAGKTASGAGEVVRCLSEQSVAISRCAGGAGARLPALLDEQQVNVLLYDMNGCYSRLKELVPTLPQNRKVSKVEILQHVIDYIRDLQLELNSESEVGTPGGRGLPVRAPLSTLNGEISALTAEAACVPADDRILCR
# UniProt Q9Y2K7: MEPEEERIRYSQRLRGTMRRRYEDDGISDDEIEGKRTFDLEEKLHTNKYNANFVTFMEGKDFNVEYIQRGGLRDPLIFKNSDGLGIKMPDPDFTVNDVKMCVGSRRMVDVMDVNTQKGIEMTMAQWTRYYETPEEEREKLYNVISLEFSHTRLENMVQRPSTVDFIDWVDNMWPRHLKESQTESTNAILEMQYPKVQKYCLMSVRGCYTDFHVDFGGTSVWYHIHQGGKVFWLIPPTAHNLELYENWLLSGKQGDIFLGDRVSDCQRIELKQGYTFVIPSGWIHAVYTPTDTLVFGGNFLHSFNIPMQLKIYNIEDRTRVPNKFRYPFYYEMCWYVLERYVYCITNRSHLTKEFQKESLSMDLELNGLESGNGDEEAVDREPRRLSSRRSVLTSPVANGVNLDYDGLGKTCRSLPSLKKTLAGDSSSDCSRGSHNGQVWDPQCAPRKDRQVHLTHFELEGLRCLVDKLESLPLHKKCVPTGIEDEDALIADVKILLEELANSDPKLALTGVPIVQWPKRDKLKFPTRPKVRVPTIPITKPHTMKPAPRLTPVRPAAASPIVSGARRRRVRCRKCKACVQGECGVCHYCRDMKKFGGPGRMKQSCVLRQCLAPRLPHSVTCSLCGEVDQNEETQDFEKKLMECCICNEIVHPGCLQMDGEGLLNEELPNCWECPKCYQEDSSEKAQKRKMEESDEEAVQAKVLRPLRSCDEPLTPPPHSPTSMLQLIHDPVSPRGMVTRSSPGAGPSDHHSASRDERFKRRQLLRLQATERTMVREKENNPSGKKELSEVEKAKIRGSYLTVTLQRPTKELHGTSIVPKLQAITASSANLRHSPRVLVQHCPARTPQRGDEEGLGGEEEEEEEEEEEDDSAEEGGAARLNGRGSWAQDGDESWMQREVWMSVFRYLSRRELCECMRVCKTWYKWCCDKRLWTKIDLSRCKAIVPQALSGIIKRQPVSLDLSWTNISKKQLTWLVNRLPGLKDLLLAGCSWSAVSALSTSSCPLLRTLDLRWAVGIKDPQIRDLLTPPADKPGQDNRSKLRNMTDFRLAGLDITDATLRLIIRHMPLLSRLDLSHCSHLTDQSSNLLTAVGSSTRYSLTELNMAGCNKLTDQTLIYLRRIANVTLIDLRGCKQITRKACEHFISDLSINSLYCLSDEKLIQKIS
# UniProt Q9NV88, whole entry: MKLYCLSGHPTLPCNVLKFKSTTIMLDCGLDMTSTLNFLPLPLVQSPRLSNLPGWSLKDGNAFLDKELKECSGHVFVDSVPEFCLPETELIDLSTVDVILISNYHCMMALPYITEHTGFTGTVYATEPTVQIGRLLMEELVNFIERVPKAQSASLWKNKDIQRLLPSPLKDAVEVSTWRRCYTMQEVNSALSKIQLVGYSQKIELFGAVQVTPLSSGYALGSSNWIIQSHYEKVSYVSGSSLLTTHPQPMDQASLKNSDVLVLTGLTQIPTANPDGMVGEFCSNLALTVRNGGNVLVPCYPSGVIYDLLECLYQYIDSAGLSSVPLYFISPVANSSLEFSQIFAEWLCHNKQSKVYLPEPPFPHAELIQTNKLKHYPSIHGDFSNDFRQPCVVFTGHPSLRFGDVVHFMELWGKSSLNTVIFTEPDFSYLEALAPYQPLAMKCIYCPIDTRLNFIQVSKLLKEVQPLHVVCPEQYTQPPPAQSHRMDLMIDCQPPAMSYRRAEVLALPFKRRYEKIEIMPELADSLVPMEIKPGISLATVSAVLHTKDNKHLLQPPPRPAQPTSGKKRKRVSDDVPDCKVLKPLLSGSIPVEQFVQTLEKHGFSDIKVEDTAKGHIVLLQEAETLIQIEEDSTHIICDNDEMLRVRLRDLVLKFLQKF
# The other results are listed elsewhere or left out.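 How the source made its calls: active = dose-dependent thermal stabilisation significant by F-test of dose-response against flat model at 10% FDR; inactive = not significant.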
# Compound: Nc1nc2c(ncn2[C@@H]2O[C@H](COP(=O)(O)OP(=O)(O)OP(=O)(O)O)[C@@H](O)[C@H]2O)c(=O)[nH]1
# Test: dose-dependent thermal stabilisation call (2D-TPP, DLPTP, 10% FDR) (binary (1 = stabilised)); higher = stabilised by the compound
# Settings: system: Jurkat gel-filtered lysate; concentration range 1-500 µM
# Description: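 2D thermal proteome profiling in gel-filtered Jurkat E6.1 lysate (2 mg/ml) treated with NaGTP (0, 1, 10, 100, 500 uM) for 10 min at room temperature, then heated 3 min at one of 12 temperatures (42-63.9 C). Soluble protein was quantified by TMT10 MS. The value is the DLPTP call of the paper: dose-dependent thermal stabilisation over all temperatures at 10% FDR (F-test of a dose-response against a flat model); one experiment, one call per tested protein.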
row,Target,dose-dependent thermal stabilisation call
1,LDLR (UniProt P01130),inactive: 0
2,KCTD12 (UniProt Q96CX2),inactive: 0
3,IAH1 (UniProt Q2TAA2),inactive: 0
4,HSPBAP1 (UniProt Q96EW2),inactive: 0
5,KIAA0930 (UniProt Q6ICG6),inactive: 0
6,IDH3A (UniProt P50213),active: 1
7,KYAT3 (UniProt Q6YP21),inactive: 0
8,LNPEP (UniProt Q9UIQ6),inactive: 0
9,ISCU (UniProt Q9H1K1),inactive: 0
10,KLF12 (UniProt Q9Y4X4),inactive: 0
11,INTS11 (UniProt Q5TA45),inactive: 0
12,KIAA1551 (UniProt Q9HCM1),inactive: 0
13,ISOC1 (UniProt Q96CN7),inactive: 0
14,KBTBD11 (UniProt O94819),inactive: 0
15,KIAA0513 (UniProt O60268),inactive: 0
16,ISL2 (UniProt Q96A47),inactive: 0
17,IPO9 (UniProt Q96P70),inactive: 0
18,KIF14 (UniProt Q15058),inactive: 0
19,LDB1 (UniProt Q86U70),inactive: 0
20,KIF2C (UniProt Q99661),active: 1

# Quoted from above for reference:
row,Target,dose-dependent thermal stabilisation call
19,LDB1 (UniProt Q86U70),inactive: 0
20,KIF2C (UniProt Q99661),active: 1

# (listing goes on)

row,Target,dose-dependent thermal stabilisation call
1,KIF15 (UniProt Q9NS87),active: 1
2,LIMD2 (UniProt Q9BT23),inactive: 0
3,LARP4B (UniProt Q92615),inactive: 0
4,LMO4 (UniProt P61968),inactive: 0
5,LGALS1 (UniProt P09382),inactive: 0
6,LEMD3 (UniProt Q9Y2U8),inactive: 0
7,KNL1 (UniProt Q8NG31),inactive: 0
8,HOMER3 (UniProt Q9NSC5),inactive: 0
9,IGF2R (UniProt P11717),inactive: 0
10,LANCL2 (UniProt Q9NS86),inactive: 0
11,ID1 (UniProt P41134),inactive: 0
12,KDM2A (UniProt Q9Y2K7),inactive: 0
13,INTS9 (UniProt Q9NV88),inactive: 0
14,IGBP1 (UniProt P78318),inactive: 0
15,IMPA1 (UniProt P29218),inactive: 0
16,KDELC1 (UniProt Q6UW63),inactive: 0
17,LGALS9 (UniProt O00182),inactive: 0
18,ITPKB (UniProt P27987),inactive: 0
19,LMTK2 (UniProt Q8IWU2),inactive: 0
20,KDM8 (UniProt Q8N371),inactive: 0
